Measurements as given in the supplement of paper PMC12819154, “High-throughput peptide-centric local stability assay extends protein–ligand identification to membrane proteins, tissues and bacteria” (Nature Structural & Molecular Biology, 2025).
Some of the results follow. Most entries show no effect beyond the scatter of the controls.

The chains behind the UniProt entries cited, without tags or fusion partners. Where a name states a change or a piece, a line headed by the entry shows the natural chain unless it says otherwise.
UniProt P63300, whole entry: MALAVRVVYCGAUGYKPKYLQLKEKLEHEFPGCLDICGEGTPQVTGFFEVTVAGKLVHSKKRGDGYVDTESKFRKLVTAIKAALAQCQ
UniProt P70340: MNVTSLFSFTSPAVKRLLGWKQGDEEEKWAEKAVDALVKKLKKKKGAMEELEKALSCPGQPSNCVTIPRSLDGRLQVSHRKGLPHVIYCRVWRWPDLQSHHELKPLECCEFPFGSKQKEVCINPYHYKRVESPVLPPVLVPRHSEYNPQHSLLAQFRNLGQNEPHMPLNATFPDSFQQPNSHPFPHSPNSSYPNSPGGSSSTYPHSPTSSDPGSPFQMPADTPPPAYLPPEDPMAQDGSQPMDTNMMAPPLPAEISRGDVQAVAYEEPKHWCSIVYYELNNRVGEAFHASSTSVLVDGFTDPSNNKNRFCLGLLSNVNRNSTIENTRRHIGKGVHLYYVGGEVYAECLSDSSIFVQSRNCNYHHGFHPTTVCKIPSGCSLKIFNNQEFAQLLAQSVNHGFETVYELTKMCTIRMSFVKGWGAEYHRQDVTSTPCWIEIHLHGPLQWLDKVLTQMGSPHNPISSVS
UniProt P70335: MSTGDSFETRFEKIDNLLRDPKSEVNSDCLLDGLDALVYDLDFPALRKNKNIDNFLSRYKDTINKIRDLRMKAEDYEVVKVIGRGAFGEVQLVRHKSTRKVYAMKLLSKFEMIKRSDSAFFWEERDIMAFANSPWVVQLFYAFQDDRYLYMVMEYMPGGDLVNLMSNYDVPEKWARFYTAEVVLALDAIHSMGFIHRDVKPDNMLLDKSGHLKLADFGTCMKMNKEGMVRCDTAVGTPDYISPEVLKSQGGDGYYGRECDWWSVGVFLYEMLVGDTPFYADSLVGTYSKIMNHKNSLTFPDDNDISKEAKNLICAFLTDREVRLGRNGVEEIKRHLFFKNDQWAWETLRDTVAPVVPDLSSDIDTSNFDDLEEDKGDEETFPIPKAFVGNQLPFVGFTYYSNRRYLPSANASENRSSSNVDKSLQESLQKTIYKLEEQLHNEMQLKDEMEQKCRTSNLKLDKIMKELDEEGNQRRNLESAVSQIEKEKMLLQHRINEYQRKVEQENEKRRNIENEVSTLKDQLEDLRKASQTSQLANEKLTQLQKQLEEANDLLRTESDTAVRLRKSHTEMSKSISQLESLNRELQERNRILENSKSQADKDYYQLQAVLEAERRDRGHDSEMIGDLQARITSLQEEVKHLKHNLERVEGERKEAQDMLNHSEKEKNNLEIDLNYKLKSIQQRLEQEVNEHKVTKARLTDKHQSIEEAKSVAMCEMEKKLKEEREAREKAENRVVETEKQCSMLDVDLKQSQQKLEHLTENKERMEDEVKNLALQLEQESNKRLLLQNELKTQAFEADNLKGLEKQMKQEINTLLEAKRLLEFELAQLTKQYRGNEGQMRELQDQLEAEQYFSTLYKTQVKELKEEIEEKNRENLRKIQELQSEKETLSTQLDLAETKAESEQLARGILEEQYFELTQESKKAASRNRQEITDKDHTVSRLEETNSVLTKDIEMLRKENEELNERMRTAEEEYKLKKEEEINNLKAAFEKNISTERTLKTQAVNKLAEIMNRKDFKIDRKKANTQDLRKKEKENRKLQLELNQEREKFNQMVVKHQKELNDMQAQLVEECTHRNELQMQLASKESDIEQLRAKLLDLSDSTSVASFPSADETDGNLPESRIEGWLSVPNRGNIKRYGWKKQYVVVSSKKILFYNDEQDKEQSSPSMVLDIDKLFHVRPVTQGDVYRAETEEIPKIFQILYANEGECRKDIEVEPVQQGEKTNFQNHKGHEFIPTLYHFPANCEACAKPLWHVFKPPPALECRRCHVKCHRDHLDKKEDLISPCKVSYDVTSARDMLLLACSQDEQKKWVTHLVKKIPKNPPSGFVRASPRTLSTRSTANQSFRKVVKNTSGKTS
UniProt P70353: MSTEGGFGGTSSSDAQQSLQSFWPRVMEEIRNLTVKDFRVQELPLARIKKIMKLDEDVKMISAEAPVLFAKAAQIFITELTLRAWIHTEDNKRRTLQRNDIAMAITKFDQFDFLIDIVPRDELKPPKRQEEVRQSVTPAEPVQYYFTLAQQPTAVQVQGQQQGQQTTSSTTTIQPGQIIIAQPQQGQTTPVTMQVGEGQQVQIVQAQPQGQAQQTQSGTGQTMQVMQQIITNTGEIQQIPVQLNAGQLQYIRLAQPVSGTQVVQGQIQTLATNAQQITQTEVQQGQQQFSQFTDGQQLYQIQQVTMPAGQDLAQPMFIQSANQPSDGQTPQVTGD
UniProt P97386: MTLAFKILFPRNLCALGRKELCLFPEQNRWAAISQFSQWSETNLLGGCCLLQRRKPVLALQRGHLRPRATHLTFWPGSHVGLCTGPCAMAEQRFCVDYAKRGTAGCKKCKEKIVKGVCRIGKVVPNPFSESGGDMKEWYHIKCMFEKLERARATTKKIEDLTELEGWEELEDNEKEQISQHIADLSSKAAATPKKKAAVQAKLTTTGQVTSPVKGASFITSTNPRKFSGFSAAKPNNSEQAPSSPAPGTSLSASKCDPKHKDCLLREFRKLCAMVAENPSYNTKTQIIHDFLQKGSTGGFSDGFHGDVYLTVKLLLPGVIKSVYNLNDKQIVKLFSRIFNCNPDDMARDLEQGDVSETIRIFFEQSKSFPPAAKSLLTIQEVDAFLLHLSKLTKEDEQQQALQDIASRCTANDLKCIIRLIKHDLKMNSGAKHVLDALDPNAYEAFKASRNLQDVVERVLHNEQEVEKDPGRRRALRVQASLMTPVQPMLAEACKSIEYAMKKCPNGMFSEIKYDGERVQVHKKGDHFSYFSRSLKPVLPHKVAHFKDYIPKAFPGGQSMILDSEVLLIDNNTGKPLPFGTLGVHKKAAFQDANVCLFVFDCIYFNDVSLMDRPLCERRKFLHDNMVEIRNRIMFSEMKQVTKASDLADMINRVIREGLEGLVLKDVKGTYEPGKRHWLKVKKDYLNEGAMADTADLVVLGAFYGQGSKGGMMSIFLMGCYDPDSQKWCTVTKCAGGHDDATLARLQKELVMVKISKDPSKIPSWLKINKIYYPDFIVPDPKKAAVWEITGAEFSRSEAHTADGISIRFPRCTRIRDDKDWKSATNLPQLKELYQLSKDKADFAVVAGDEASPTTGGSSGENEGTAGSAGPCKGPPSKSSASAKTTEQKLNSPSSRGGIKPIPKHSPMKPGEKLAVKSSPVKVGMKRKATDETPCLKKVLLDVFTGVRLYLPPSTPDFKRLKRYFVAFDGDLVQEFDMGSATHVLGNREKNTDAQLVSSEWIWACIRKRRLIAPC
UniProt Q01405: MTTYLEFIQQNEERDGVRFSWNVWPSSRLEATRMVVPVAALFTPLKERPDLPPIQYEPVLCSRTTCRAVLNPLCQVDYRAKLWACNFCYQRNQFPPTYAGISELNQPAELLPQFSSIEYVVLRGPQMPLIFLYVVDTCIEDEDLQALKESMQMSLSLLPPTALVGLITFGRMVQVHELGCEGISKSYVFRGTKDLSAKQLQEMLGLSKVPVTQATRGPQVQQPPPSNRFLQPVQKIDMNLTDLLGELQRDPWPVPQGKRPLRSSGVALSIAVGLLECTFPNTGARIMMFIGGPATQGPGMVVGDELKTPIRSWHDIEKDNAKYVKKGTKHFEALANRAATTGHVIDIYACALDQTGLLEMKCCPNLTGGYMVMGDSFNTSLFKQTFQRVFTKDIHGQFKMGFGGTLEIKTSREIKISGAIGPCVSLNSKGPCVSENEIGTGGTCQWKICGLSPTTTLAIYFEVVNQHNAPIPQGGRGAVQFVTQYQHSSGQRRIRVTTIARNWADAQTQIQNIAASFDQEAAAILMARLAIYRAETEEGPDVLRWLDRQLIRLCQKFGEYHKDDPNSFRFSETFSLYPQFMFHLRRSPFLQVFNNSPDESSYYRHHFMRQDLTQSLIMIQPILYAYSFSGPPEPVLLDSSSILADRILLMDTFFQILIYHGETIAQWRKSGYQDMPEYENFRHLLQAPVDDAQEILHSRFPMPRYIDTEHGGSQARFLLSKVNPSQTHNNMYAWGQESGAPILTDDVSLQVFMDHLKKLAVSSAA
UniProt Q01341: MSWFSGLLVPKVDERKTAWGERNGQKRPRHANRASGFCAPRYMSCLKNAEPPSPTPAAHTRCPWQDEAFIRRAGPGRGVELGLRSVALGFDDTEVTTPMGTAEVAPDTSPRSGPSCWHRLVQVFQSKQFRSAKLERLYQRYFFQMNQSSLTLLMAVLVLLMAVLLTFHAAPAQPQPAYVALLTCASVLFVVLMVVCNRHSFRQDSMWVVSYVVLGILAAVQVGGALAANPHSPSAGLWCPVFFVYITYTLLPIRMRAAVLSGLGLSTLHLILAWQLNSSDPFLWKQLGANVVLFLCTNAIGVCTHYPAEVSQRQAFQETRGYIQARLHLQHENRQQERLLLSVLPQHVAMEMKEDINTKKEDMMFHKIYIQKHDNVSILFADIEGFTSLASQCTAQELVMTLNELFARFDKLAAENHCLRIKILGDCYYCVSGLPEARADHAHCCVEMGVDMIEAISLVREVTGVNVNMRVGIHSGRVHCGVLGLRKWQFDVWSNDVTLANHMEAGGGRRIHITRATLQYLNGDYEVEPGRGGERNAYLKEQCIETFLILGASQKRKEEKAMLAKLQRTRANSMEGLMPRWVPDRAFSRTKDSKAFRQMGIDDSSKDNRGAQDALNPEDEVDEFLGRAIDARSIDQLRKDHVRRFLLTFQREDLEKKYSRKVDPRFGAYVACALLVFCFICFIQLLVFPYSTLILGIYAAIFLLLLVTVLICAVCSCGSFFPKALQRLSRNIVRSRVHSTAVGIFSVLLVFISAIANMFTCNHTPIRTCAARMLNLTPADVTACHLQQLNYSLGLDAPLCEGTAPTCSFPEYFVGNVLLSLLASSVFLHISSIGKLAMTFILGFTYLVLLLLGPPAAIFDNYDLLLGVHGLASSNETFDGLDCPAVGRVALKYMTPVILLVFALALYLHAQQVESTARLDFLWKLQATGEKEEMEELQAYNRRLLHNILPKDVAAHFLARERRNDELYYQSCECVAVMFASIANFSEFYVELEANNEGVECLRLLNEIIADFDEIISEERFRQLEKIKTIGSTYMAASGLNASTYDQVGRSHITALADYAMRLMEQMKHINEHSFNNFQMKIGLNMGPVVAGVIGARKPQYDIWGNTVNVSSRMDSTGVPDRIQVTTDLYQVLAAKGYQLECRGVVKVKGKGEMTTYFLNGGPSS
UniProt Q00898: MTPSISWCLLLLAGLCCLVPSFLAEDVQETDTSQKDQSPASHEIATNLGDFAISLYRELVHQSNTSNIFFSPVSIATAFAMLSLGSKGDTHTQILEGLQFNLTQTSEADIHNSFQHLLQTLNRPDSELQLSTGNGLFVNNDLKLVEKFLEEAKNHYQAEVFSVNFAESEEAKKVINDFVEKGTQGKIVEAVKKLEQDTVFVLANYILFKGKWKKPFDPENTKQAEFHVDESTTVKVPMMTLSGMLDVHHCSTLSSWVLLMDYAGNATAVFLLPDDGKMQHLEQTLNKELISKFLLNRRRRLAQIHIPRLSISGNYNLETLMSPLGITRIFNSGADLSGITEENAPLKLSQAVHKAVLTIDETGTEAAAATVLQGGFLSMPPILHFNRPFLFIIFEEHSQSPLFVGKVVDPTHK
UniProt P97447: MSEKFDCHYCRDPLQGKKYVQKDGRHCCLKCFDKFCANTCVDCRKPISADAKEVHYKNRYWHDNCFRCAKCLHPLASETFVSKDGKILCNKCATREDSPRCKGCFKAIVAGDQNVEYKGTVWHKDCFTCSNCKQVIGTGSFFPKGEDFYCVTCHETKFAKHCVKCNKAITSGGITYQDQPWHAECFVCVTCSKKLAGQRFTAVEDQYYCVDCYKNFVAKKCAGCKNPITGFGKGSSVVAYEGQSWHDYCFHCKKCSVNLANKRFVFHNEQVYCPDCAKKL
UniProt P98083: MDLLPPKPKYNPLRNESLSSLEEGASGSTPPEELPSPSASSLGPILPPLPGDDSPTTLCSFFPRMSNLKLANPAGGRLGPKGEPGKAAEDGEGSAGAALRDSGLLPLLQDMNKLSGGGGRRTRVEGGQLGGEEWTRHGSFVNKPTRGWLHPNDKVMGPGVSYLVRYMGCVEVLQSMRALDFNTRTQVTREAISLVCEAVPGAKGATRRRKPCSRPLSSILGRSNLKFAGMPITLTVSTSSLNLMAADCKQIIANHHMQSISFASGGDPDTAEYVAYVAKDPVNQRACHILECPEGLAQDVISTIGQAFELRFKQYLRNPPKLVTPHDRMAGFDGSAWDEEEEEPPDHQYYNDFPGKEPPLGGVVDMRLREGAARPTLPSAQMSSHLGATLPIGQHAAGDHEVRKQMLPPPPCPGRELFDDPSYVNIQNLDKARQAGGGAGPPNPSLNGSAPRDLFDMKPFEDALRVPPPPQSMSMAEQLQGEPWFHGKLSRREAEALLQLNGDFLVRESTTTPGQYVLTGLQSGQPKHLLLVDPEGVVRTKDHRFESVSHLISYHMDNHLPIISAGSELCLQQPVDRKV

Compound: CN[C@@H]1C[C@H]2O[C@@](C)([C@@H]1OC)n1c3ccccc3c3c4c(c5c6ccccc6n2c5c31)C(=O)NC4 [staurosporine]
Assay: log2 fold change of tryptic peptide abundance, ligand vs vehicle (limited proteolysis) (log2 ratio); higher = more trypsin-susceptible (destabilized)
Conditions: ligand concentration: 20 uM; sample: mouse liver crude lysate; replicate design: treated separately

Target	log2 fold change
UniProt P63300 (peptide sequence: GDGYVDTESK, peptide start residue: 63)	-0.104
UniProt P70340 (peptide sequence: GDVQAVAYEEPK, peptide start residue: 258)	0.735
UniProt P70335 (peptide sequence: EAQDMLNHSEKEK, peptide start residue: 654)	0.236
UniProt P70353 (peptide sequence: AWIHTEDNKR, peptide start residue: 84)	0.494
UniProt P97386 (peptide sequence: SLKPVLPHK, peptide start residue: 534)	-0.385
UniProt Q02053 (peptide sequence: VGEFCHSR, peptide start residue: 175)	-0.563
UniProt P81270 (peptide sequence: YPSDLPYMGSYHAHPQK, peptide start residue: 418)	-0.518
UniProt Q01405 (peptide sequence: HLLQAPVDDAQEILHSR, peptide start residue: 683)	0.205
UniProt Q01341 (peptide sequence: LHLQHENR, peptide start residue: 327)	-0.389
UniProt P97822 (peptide sequence: DLSTVEALQNLK, peptide start residue: 102)	-0.171
UniProt Q00898 (peptide sequence: KPFDPENTK, peptide start residue: 214)	0.266
UniProt P97447 (peptide sequence: YWHDNCFRCAK, peptide start residue: 60)	-0.382
UniProt P98083 (peptide sequence: DLFDMKPFEDALR, peptide start residue: 453)	0.376

2 consecutive records out of the list so far, for reference:
Target	log2 fold change
UniProt Q00898 (peptide sequence: KPFDPENTK, peptide start residue: 214)	0.266
UniProt P97447 (peptide sequence: YWHDNCFRCAK, peptide start residue: 60)	-0.382
